Measured values: the supplement of paper PMC10849652
The list shows a part of the results.

The chains behind the UniProt entries cited, without tags or fusion partners. Where a name states a change or a piece, a line headed by the entry shows the natural chain unless it says otherwise.
UniProt Q9NP61: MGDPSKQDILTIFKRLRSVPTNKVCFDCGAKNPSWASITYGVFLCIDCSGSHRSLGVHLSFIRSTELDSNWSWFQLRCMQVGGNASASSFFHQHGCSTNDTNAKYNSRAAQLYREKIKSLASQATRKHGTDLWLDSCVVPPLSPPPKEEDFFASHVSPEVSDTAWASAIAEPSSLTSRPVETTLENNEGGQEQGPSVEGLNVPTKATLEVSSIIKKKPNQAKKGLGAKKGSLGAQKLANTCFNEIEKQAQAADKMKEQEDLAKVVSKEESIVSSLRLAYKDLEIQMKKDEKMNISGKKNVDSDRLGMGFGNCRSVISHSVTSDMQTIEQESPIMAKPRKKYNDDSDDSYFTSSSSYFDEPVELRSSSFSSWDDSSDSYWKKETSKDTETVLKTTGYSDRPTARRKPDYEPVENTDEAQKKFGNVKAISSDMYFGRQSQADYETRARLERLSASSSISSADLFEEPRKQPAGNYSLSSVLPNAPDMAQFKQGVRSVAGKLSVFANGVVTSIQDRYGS
UniProt O14497, whole entry, looked up: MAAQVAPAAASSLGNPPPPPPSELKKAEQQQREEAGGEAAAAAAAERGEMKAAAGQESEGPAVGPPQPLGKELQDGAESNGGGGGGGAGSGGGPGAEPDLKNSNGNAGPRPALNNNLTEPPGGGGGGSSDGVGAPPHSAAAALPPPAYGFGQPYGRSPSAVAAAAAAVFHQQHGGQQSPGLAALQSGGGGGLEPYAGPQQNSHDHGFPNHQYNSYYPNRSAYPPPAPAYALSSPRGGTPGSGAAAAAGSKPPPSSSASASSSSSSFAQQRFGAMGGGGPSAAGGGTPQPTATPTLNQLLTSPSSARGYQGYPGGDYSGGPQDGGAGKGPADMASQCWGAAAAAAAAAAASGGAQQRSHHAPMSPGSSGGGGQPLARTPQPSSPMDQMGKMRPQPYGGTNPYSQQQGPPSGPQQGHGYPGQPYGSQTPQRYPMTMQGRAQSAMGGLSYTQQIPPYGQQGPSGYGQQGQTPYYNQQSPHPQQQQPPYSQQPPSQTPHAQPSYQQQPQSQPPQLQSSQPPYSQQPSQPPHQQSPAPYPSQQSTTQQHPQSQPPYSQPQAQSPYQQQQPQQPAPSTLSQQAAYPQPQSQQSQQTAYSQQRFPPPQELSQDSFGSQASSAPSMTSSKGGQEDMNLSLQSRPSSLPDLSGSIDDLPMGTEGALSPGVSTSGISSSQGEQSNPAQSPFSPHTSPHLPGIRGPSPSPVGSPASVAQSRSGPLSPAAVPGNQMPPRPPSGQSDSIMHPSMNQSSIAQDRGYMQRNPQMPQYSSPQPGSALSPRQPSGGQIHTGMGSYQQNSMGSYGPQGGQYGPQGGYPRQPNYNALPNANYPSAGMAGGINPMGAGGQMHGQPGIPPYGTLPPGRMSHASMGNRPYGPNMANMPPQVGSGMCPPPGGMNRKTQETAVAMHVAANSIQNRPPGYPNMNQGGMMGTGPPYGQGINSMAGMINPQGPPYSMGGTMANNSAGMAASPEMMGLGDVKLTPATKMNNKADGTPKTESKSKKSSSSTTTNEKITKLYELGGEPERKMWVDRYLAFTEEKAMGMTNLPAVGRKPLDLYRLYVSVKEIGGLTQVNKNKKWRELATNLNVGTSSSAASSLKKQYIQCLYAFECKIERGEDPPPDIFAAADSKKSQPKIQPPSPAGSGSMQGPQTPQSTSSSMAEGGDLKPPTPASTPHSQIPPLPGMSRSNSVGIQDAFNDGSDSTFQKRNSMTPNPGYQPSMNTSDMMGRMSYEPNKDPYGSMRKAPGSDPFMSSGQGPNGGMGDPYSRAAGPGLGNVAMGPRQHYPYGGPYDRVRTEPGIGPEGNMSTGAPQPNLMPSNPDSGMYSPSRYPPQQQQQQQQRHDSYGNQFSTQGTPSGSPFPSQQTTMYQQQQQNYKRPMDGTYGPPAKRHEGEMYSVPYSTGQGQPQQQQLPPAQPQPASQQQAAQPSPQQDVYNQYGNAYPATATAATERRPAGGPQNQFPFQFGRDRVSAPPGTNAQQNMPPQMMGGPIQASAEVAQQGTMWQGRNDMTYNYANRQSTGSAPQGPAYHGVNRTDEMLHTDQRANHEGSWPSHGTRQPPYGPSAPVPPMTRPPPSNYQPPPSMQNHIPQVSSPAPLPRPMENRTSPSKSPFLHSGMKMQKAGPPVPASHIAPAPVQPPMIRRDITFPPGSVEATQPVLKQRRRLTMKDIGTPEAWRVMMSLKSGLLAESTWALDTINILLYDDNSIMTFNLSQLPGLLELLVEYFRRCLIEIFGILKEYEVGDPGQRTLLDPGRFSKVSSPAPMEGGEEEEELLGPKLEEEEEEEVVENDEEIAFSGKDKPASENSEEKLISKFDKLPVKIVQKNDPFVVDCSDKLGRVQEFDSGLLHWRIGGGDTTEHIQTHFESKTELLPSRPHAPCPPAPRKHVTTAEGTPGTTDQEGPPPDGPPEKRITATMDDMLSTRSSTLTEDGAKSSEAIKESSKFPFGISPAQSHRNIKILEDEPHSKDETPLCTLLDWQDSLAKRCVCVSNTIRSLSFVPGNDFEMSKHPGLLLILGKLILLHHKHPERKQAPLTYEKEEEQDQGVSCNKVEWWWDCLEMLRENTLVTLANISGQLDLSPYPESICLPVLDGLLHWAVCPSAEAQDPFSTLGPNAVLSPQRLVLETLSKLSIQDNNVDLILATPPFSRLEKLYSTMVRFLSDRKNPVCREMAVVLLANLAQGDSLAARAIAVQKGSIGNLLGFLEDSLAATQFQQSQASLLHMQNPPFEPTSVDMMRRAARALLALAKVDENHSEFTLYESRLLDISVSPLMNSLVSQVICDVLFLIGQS
UniProt Q8N2F6: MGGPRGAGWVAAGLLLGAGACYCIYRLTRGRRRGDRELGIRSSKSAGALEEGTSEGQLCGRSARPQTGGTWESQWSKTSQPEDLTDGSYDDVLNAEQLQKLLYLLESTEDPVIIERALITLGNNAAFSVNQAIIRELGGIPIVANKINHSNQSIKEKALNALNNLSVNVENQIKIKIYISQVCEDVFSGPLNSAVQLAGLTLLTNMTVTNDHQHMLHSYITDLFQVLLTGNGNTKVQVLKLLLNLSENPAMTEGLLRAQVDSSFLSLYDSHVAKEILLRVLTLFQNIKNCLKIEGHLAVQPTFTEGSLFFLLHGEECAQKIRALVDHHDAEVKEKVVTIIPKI
UniProt Q3SXY8: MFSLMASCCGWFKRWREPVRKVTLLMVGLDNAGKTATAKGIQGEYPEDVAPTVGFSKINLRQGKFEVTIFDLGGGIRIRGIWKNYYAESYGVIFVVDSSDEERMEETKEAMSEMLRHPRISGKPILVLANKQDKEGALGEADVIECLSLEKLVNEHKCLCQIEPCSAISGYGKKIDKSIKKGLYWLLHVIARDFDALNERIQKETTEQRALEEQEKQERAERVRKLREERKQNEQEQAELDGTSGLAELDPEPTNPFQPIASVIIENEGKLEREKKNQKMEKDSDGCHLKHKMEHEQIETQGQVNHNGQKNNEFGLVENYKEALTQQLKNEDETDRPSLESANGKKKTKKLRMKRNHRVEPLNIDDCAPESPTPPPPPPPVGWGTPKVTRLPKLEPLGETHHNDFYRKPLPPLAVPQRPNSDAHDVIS
UniProt Q9HC16: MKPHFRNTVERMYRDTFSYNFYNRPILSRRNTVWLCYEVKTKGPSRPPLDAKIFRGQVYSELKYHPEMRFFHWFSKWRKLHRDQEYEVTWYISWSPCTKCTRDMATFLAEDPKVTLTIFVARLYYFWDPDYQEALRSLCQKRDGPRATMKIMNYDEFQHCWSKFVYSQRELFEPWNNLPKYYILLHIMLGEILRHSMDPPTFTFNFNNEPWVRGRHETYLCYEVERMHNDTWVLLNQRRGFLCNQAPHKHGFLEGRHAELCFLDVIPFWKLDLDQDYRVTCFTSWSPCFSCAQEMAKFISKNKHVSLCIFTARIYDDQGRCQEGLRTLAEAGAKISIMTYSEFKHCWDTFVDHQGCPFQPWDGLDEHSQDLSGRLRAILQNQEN
UniProt P53365: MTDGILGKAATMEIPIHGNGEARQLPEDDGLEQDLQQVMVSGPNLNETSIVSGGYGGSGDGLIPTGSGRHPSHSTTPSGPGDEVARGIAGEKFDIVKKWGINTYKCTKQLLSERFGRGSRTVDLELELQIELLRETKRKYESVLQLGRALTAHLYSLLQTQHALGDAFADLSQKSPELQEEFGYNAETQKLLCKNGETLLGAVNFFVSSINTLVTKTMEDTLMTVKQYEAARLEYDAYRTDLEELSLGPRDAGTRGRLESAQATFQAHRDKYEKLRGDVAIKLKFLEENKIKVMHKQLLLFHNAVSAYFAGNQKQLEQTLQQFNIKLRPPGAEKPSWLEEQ
UniProt Q06481, whole entry, looked up: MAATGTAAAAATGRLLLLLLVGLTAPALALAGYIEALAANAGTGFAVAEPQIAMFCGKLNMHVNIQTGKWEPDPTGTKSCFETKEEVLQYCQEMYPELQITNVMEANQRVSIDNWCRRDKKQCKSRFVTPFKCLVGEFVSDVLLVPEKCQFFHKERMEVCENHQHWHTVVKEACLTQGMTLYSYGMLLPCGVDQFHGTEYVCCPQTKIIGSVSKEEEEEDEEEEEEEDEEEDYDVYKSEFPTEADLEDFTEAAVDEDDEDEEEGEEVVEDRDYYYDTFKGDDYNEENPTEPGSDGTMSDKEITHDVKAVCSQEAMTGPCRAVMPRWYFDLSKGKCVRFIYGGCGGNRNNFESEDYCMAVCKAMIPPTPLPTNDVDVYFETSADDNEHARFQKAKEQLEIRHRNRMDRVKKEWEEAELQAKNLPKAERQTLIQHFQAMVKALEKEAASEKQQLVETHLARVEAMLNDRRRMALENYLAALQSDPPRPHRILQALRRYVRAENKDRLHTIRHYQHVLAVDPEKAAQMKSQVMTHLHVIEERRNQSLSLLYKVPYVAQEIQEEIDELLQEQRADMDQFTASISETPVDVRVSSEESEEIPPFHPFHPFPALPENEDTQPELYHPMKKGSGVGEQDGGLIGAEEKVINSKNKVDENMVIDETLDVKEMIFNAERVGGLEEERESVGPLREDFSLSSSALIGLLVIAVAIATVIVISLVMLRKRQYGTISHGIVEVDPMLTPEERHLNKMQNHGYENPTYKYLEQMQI
UniProt Q07960: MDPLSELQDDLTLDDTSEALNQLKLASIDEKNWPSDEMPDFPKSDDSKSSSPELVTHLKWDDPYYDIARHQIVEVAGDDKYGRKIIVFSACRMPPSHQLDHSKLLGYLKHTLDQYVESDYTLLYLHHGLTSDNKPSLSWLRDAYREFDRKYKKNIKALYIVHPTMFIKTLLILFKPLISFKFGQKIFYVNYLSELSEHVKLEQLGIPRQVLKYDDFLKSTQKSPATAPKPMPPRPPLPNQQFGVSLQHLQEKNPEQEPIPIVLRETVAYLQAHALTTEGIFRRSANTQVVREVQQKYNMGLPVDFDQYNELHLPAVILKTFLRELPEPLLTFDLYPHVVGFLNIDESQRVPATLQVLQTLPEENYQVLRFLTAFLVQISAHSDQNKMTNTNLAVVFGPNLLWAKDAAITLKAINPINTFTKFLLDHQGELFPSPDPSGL
UniProt P29972: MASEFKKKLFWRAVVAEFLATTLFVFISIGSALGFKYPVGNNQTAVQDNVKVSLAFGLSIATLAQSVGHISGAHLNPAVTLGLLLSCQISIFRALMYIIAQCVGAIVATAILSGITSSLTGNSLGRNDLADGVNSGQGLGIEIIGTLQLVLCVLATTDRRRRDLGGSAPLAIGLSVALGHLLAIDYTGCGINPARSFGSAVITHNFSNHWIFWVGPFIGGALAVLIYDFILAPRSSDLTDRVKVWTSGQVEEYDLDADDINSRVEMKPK
UniProt Q9P2N2: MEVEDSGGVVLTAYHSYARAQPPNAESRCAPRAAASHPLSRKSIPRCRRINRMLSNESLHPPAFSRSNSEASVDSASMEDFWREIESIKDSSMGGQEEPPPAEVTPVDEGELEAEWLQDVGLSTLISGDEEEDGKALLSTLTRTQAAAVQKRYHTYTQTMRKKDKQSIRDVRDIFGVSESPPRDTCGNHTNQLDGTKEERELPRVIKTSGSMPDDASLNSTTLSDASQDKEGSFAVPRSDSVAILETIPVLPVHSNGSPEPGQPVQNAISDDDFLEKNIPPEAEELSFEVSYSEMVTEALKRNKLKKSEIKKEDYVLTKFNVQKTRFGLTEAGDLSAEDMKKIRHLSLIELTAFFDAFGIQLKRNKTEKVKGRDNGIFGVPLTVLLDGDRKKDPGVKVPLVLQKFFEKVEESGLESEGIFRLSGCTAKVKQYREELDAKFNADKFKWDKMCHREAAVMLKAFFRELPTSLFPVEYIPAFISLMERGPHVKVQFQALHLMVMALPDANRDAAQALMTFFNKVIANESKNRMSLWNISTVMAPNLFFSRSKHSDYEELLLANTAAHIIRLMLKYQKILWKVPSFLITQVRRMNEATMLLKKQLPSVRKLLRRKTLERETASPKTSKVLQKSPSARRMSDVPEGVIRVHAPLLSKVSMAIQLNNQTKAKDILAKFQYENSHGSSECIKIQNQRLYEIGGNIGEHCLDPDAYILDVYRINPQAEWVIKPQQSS

Columns and labels:
Experiment in all cases: log2 fold change, soluble protein after heating vs DMSO (PISA); higher = thermal stabilisation; K562 lysate, 10 uM; active = over 0.2 and 3.5 SD of the protein, either way, in both replicates (recomputed)
[1] = compound: C1=CC=C(C=C1)[C@H](COC2=CC3=C(C=C2)NC(=O)N3)NC(=O)C4=CC=CN(C4=O)CC5=CC(=C(C=C5)F)F
Outline: (§1)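 Pellets of K562 cells were dounce-homogenised in PBS pH 7.4 with 1 mM MgCl2, and the crude extract was held at 1 mg/mL protein for a 30 min treatment with 10 μM compound. Aliquots were heated for 3 min over 48°C-58°C and pooled before NP-40 was added to 0.5% at 4°C. The supernatant from 21,000xg for 90 min was quantified by TMTpro 16plex LC-MS/MS with channel sums equalised. Values are reported from duplicates as log-two fold change in thermal stability relative to solvent controls.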

[2] = compound: CC1=C(SC2=C1C(=N[C@H](C3=NN=C(N32)C)CC(=O)N)C4=CC=C(C=C4)Cl)C
Outline: as §1

[3] = compound: CC1=C2C(=CC=C1)N=C(N(C2=O)C3=CC=CC=C3C)CN4C=NC5=C(N=CN=C54)N
Outline: as §1

[4] = compound: Cc1sc2c(c1C)C(c1ccc(Cl)cc1)=N[C@@H](CC(=O)OC(C)(C)C)c1nnc(C)n1-2
Outline: as §1

[5] = compound: c1ccc([C@@H]2C[C@H]2NC2CCNCC2)cc1
Outline: as §1

Measured: log2 fold change

ARFGAP3 (UniProt Q9NP61)
inactive: [1] 0.083 | [2] -0.031 | [3] 0.011 | [4] 0.01 | [5] -0.051

ARPC5 (UniProt O15511)
inactive: [1] 0.048 | [2] -0.009 | [3] 0.024 | [4] -0.027 | [5] 0.001

APOE (UniProt P02649)
inactive: [1] -0.059 | [2] 0.054 | [3] -0.036 | [4] -0.022 | [5] 0.026

ARL6IP1 (UniProt Q15041)
inactive: [1] 0 | [2] -0.003 | [3] -0.005 | [4] -0.05 | [5] -0.016

ARID1A (UniProt O14497)
inactive: [1] -0.019 | [2] 0.024 | [3] -0.004 | [4] 0.026 | [5] 0

APEH (UniProt P13798)
inactive: [1] 0.032 | [2] 0.024 | [3] -0.021 | [4] -0.007 | [5] 0.02

ARMC10 (UniProt Q8N2F6)
inactive: [1] -0.022 | [2] 0.074 | [3] 0.068 | [4] 0.02 | [5] 0.008

ARPC1B (UniProt O15143)
inactive: [1] 0.054 | [2] -0.028 | [3] 0.03 | [4] 0.035 | [5] -0.016

ARL13B (UniProt Q3SXY8)
inactive: [1] 0.087 | [2] 0.03 | [3] 0.012 | [4] 0.019 | [5] 0.145

APOBEC3G (UniProt Q9HC16)
inactive: [1] -0.088 | [2] -0.195 | [3] -0.051 | [4] -0.055 | [5] 0.023

ARFIP2 (UniProt P53365)
inactive: [1] 0.041 | [2] -0.031 | [3] 0.018 | [4] -0.104 | [5] 0.017

ARHGEF18 (UniProt Q6ZSZ5)
inactive: [1] -0.005 | [2] -0.004 | [3] 0.018 | [4] -0.065 | [5] -0.016

APLP2 (UniProt Q06481)
inactive: [1] 0.017 | [2] 0.042 | [3] 0.018 | [4] -0.043 | [5] -0.02

ARHGAP1 (UniProt Q07960)
inactive: [1] 0.052 | [2] 0.02 | [3] -0.008 | [4] 0.003 | [5] -0.017

ARHGAP12 (UniProt Q8IWW6)
inactive: [1] 0.01 | [2] 0.036 | [3] 0.098 | [4] -0.029 | [5] -0.085

AQP1 (UniProt P29972)
inactive: [5] -0.008

ARHGAP28 (UniProt Q9P2N2)
inactive: [1] -0.028 | [2] -0.025 | [4] 0.009

Looked up one by one from above (2):
APLP2 (UniProt Q06481)
inactive: [1] 0.017 | [2] 0.042 | [3] 0.018 | [4] -0.043 | [5] -0.02

ARHGAP1 (UniProt Q07960)
inactive: [1] 0.052 | [2] 0.02 | [3] -0.008 | [4] 0.003 | [5] -0.017
